In the supplement of paper PMC3682954:
Values joined by “and” are separate entries in the source; they are usually repeats but may differ in a detail not shown here. Identical values can stand only once. Counter-ions that a name gives are not always drawn. ± gives the standard deviation of the averaged measurements. Some of the results follow. Many values rest on one well or one pass, so single values are uncertain.

Test system: RAW 264.7
Assay: HMGB1-induced TNF-alpha production relative to HMGB1-stimulated control; higher = more TNF-alpha secretion (less inhibition)
Settings: stimulus: HMGB1 5 ug/ml, 18 h
[1] = compound concentration: 1 ug/ml

Structure (SMILES) | HMGB1-induced TNF-alpha production [1] | HMGB1-induced TNF-alpha production (compound concentration: 3 uM)
COc1cc2ccc(=O)oc2cc1O [Scopoletin] | 58.3% | –
COc1cc2c(cc1OC)-c1c/c(=N\c3c(C)cc(C)cc3C)n(C)c(=O)n1CC2 [Trequinsin hydrochloride] | – | 99.2%
COc1cc2c(cc1OC)-c1c/c(=N\c3c(C)cc(C)cc3C)n(C)c(=O)n1CC2 [Trequinsin HCl] | – | 79.5%
Cc1cccc(Nc2ccncc2S(=O)(=O)NC(=O)NC(C)C)c1 | – | 94.3%
Cc1cccc(Nc2ccncc2S(=O)(=O)NC(=O)NC(C)C)c1 [Torsemide] | – | 101%
O=C(O)CCCC[C@@H]1CCSS1 | – | 94.3%
COC(=O)C1OC(Oc2cc(O)c3c(c2)O[C@H](c2ccccc2O)CC3=O)C(O)C(O)C1O (stereo partly drawn) | 71.9% | –
NC(=O)N1c2ccccc2CC(=O)c2ccccc21 | – | 92.4%
NC(=O)N1c2ccccc2CC(=O)c2ccccc21 [Trileptal] | – | 104%
NC(=O)N1c2ccccc2CC(=O)c2ccccc21 [Oxcarbazepine] | – | 77.7 ± 13%
NC1=NCC2c3ccccc3Cc3ccccc3N12 (stereo not drawn) [Epinastine hydrochloride] | – | 74.5%
O=C(C=Cc1ccc(O)cc1)c1ccccc1O [2',4-Dihydroxychalcone] | 80.5% | –
CC(C)Cn1cnc2c(N)nc3ccccc3c21 [Imiquimod] | – | 175 ± 97%
CC(=O)OCC(=O)[C@@]1(O)[C@H](OC(C)=O)C[C@H]2[C@@H]3CCC4=CC(=O)C=C[C@]4(C)[C@@]3(F)[C@@H](O)C[C@@]21C | – | 39.8%
O=C1OC(=O)[C@H]2[C@@H]1[C@@H]1CC[C@H]2O1 | – | 129%
O=C1OC(=O)[C@H]2[C@@H]1[C@@H]1CC[C@H]2O1 [Norcantharidin] | 144% | 151%
CN(C)CC[C@@H](c1ccc(Br)cc1)c1ccccn1 | – | 110%
CC(C)NC(=N)NC(=N)Nc1ccc(Cl)cc1 [Proguanil hydrochloride] | – | 77.1%
CC(C)NC(=N)NC(=N)Nc1ccc(Cl)cc1 | – | 80.5%
COc1ccc2c3c1O[C@H]1C[C@@H](O)C=C[C@@]31CCN(C)C2 | – | 80.1%
COc1ccc2c3c1O[C@H]1C[C@@H](O)C=C[C@@]31CCN(C)C2 [Galanthamine hydrobromide] | – | 116%
COc1ccc2c3c1O[C@H]1C[C@@H](O)C=C[C@@]31CCN(C)C2 [(-)Galanthamine] | 69.9% | –
COc1ccc2c3c1O[C@H]1C[C@@H](O)C=C[C@@]31CCN(C)C2 [Galanthamine] | – | 95.7 ± 11%
CCCCC1(C2CCCC2)Cc2cc(OCC(=O)O)c(Cl)c(Cl)c2C1=O (stereo in doubt) [R(+)-Butylindazone] | – | 74.9%
C[S+](CC[C@H](N)C(=O)I)C[C@H]1O[C@@H](n2cnc3c(N)ncnc32)[C@H](O)[C@@H]1O (stereo partly drawn) [S-(5'-Adenosyl)-L-methionine iodide] | 68.9% | –
CCCC(=O)O[C@]1(C(=O)CO)CC[C@H]2[C@@H]3CCC4=CC(=O)CC[C@]4(C)[C@H]3[C@@H](O)C[C@@]21C [Hydrocortisone 17-butyrate] | 33.1% | –

Structure (SMILES) | HMGB1-induced TNF-alpha production [1] | HMGB1-induced TNF-alpha production (compound concentration: 3 uM)
CCCC(=O)O[C@]1(C(=O)CO)CC[C@H]2[C@@H]3CCC4=CC(=O)CC[C@]4(C)[C@H]3[C@@H](O)C[C@@]21C | – | 46%
CC1(C)S[C@@H]2[C@H](NC(=O)COc3ccccc3)C(=O)N2[C@H]1C(=O)O | – | 114%
Cc1nnc(SCC2=C(C(=O)O)N3C(=O)[C@@H](NC(=O)Cn4cnnn4)[C@H]3SC2)s1 | – | 81.4%
Cc1nnc(SCC2=C(C(=O)O)N3C(=O)[C@@H](NC(=O)Cn4cnnn4)[C@H]3SC2)s1 [Cefazolin sodium] | – | 76.2%
Cc1nnc(SCC2=C(C(=O)O)N3C(=O)[C@@H](NC(=O)Cn4cnnn4)[C@H]3SC2)s1 [Cefazolin sodium salt] | – | 99.4%
Nc1nc2c(ncn2[C@@H]2O[C@H](CO)[C@@H](O)[C@@H]2O)c(=O)[nH]1 [Ara-G hydrate] | – | 103%
O=c1[nH]c(=O)n([C@H]2C[C@H](O)[C@@H](CO)O2)cc1C(F)(F)F | – | 73.1%
O=c1[nH]c(=O)n([C@H]2C[C@H](O)[C@@H](CO)O2)cc1C(F)(F)F [Trifluorothymidine] | 62.8% | –
O=c1[nH]c(=O)n([C@H]2C[C@H](O)[C@@H](CO)O2)cc1C(F)(F)F [Trifluridine] | – | 136%
CCCCCCCCNC(C)C(O)c1ccc(SC(C)C)cc1 (stereo not drawn) | – | 90.3%
CCCCCCCCNC(C)C(O)c1ccc(SC(C)C)cc1 (stereo not drawn) [Suloctidil] | – | 56.1%
Cc1cc2nc3c(=O)[nH]c(=O)nc-3n(C[C@H](O)[C@H](O)[C@H](O)COP(=O)(O)OP(=O)(O)OC[C@H]3O[C@@H](n4cnc5c(N)ncnc54)[C@H](O)[C@@H]3O)c2cc1C [Flavin adenine dinucleotide disodium salt] | 71% | –
C[C@H]1O[C@@H](O[C@H]2[C@@H](O)C[C@H](O[C@H]3[C@@H](O)C[C@H](O[C@H]4CC[C@@]5(C)[C@H](CC[C@@H]6[C@@H]5CC[C@]5(C)[C@@H](C7=CC(=O)OC7)CC[C@]65O)C4)O[C@@H]3C)O[C@@H]2C)C[C@H](O)[C@@H]1O [Digitoxin] | 72.1% | –
C[C@H]1O[C@@H](O[C@H]2[C@@H](O)C[C@H](O[C@H]3[C@@H](O)C[C@H](O[C@H]4CC[C@@]5(C)[C@H](CC[C@@H]6[C@@H]5CC[C@]5(C)[C@@H](C7=CC(=O)OC7)CC[C@]65O)C4)O[C@@H]3C)O[C@@H]2C)C[C@H](O)[C@@H]1O | – | 82.7%
S=c1[nH]cnc2nc[nH]c12 [Mercaptopurine] | – | 102%
S=c1[nH]cnc2nc[nH]c12 | – | 86.3 ± 2.5%
COc1cc2c(cc1OC)[C@@H]1C(=O)c3ccc4c(c3O[C@@H]1CO2)C=CC(C)(C)O4 | – | 99.4%
C1CCN2CC3CC(CN4CCCC[C@H]34)C2C1 (stereo partly drawn) | 75.2% | –
NCCCCN [Putrescine dihydrochloride] | – | 105%
CN(Cc1ccc(C(C)(C)C)cc1)Cc1cccc2ccccc12 [Butenafine] | – | 103 ± 16%
CC[C@@]1(O)C(=O)OCc2c1cc1n(c2=O)Cc2cc3c(CN(C)C)c(O)ccc3nc2-1 [Topotecan] | – | 87 ± 1.6%
CC[C@@]1(O)C(=O)OCc2c1cc1n(c2=O)Cc2cc3c(CN(C)C)c(O)ccc3nc2-1 | – | 94.4% and 81.1%
Nc1nnc(-c2cccc(Cl)c2Cl)c(N)n1 | – | 96.6 ± 12%
Nc1nnc(-c2cccc(Cl)c2Cl)c(N)n1 [Lamotrigine] | – | 113 ± 9.4%
Nc1nc(=O)[nH]cc1F | – | 89%
Nc1nc(=O)[nH]cc1F [Flucytosine] | – | 99.8%

Structure (SMILES) | HMGB1-induced TNF-alpha production [1] | HMGB1-induced TNF-alpha production (compound concentration: 3 uM)
Oc1cc(O)cc(/C=C/c2ccc(O)c(O)c2)c1 [Piceatannol] | – | 119%
Cc1nc(N=Nc2cc(S(=O)(=O)O)c3cc([N+](=O)[O-])cc(S(=O)(=O)O)c3c2)c(COP(=O)(O)O)c(C=O)c1O [PPNDS tetrasodium] | – | 111%
Cc1cccc(C)c1NC(=O)CN1CCN(CCCC(c2ccc(F)cc2)c2ccc(F)cc2)CC1 [Lidoflazine] | – | 61.2%
Cc1cccc(C2CN(C)CCc3c2cc(O)c(O)c3Cl)c1 (stereo not drawn) | – | 118%
Cc1c(C)c2c(c(C)c1O)CCC(C)(CCCC(C)CCCC(C)CCCC(C)C)O2 (stereo not drawn) [alpha-TOCHOPHEROL] | – | 97%
COc1cc(C)c(Cc2cnc(N)nc2N)cc1OC | – | 102%
CC(=O)O[C@]1(C(C)=O)CC[C@H]2[C@@H]3C=C(C)C4=CC(=O)CC[C@]4(C)[C@H]3CC[C@@]21C | – | 97.7 ± 24%
CC(=O)O[C@]1(C(C)=O)CC[C@H]2[C@@H]3C=C(C)C4=CC(=O)CC[C@]4(C)[C@H]3CC[C@@]21C [Megestrol Acetate] | – | 99.8%
CC(=O)O[C@]1(C(C)=O)CC[C@H]2[C@@H]3C=C(C)C4=CC(=O)CC[C@]4(C)[C@H]3CC[C@@]21C [Megestrol acetate] | – | 109%
NC[C@H]1O[C@H](O[C@H]2[C@H](O)[C@@H](O[C@H]3O[C@H](CO)[C@@H](O)[C@H](N)[C@H]3O)[C@H](N)C[C@@H]2N)[C@H](N)[C@@H](O)[C@@H]1O | – | 91.8%
CC/C=C\C/C=C\C/C=C\CCCCCCCC(=O)O [Linolenic acid] | 78.9% | –
C#CC1(O)CC[C@H]2[C@@H]3CCC4=CC(=O)CC[C@@H]4[C@H]3CC[C@@]21CC (stereo partly drawn) | – | 84.3%
O=c1c(-c2ccccc2)c1-c1ccccc1 [diphenylcyclopropenone] | – | 114%
CC(C)(C)NCC(O)COc1cccc2c1CC(O)C(O)C2 (stereo not drawn) | – | 87.2%
CC(C)(C)NCC(O)COc1cccc2c1CC(O)C(O)C2 (stereo not drawn) [Nadolol] | – | 117%
C[C@H](CCC(=O)NCCS(=O)(=O)O)[C@H]1CC[C@H]2[C@@H]3[C@H](O)C[C@@H]4C[C@H](O)CC[C@]4(C)[C@H]3C[C@H](O)[C@]12C [Taurocholic acid] | – | 87.9%
C[C@H](CCC(=O)NCCS(=O)(=O)O)[C@H]1CC[C@H]2[C@@H]3[C@H](O)C[C@@H]4C[C@H](O)CC[C@]4(C)[C@H]3C[C@H](O)[C@]12C [Sodium Taurocholate hydrate] | – | 85.2%
Cc1ccc(S(=O)(=O)/C=C/C#N)cc1 | – | 39.1%
CCCn1c(=O)c2[nH]c(-c3ccc(OCC(=O)NCCN)cc3)nc2n(CCC)c1=O [Xanthine amine congener] | – | 97.3%
CC(=O)OC[C@H]1OC=C[C@@H](OC(C)=O)[C@H]1OC(C)=O [3,4,6-Tri-O-acetyl-D-galactal] | 85.8% | –
CCOCCn1c(N2CCCN(C)CC2)nc2ccccc21 [Emedastine] | – | 100%
CN1CC(=O)N=C1NC(=O)Nc1cccc(Cl)c1 [Fenobam] | – | 120%
CC[C@H](C)C(=O)O[C@H]1C[C@H](O)C=C2C=C[C@H](C)[C@H](CC[C@@H](O)C[C@@H](O)CC(=O)O)[C@H]21 [Pravastatin] | – | 103%
CC[C@H](C)C(=O)O[C@H]1C[C@H](O)C=C2C=C[C@H](C)[C@H](CC[C@@H](O)C[C@@H](O)CC(=O)O)[C@H]21 [PRAVASTATIN Sodium] | – | 103%
CC[C@H](C)C(=O)O[C@H]1C[C@H](O)C=C2C=C[C@H](C)[C@H](CC[C@@H](O)C[C@@H](O)CC(=O)O)[C@H]21 | – | 71.4%
